{
  "source": "patent US10203334B2",
  "about": "“Methods and compositions related to nucleic acid binding assays” (Nubad, LLC, priority 2012, dated 2019)",
  "test_system": "d(CCCCGGGG)2",
  "experiment": "Fluorescein-neomycin fluorescence quenching by DNA duplex",
  "format": "binding",
  "experimental": "It has been shown that the fluorescence of a fluorescein-neomycin is quenched when bound to a nucleic acid target. In continued efforts to expand the applications of the fluorescein-neomycin conjugate, a fluorescence quenching study was performed to determine if the quenching of fluorescein-neomycin in the presence of DNA is representative of the neomycin affinity. Previous studies using the duplexes d(GGGGCCCC)2 and d(CCCCGGGG)2 have shown the binding is lower for d(CCCCGGGG)2. This has been shown from the ITC derived binding constants, FID studies, and electrostatic potential studies. […] For this reason the fluorescence quenching of fluorescein-neomycin with d(GGGGCCCC)2 and d(CCCCGGGG)2 was performed at three different buffer salt concentrations. […] Results from this study show here that the fluorescein-neomycin quenching can be applied to screening the 256 GC rich hairpins to identify which sequence neomycin has the highest affinity. Table 2 represents the change in fluorescence (%) values of fluorescein-neomycin with 1rdr d(GGGGCCCC)2 and d(CCCCGGGG)2 in 3 different buffer salt concentrations and the ratio between the change in fluorescence (%) values of F-neo with d(CCCCGGGG)2 compared to d(GGGGCCCC)2. Fluorescein-neomycin=1 μM, Buffer=10 mM SC, 0.5 mM EDTA, and either 50 mM NaCl, 100 mM NaCl, or 150 mM NaCl (pH=6.8). Experiment was performed in triplicate and the results were also polted in FIG. 10 showing the change in fluorescence (%) of fluorescein-neomycin with 1 equivalent d(GGGGCCCC)2 and d(CCCCGGGG)2 in 3 different buffer salt concentrations.",
  "data": [
    {"compound": "NCC1O[C@H](OC2C(O)C(OC3C(O)[C@H](N)CC(N)[C@H]3O[C@H]3OC(CN)[C@@H](O)C(O)C3N)O[C@@H]2CSCCNC(=O)CCSCC(=O)Nc2ccc(-c3c4ccc(=O)cc-4oc4cc(O)ccc34)c(C(=O)O)c2)C(N)C(O)[C@@H]1O", "note": "(stereo partly drawn) [F-neo (42a), Neomycin-Fluorescein Conjugate]", "values": [
      {"measurement": "Ratio of ΔF (%) with d(CCCCGGGG)2/ d(GGGGCCCC)2", "setting": "50 mM NaCl", "value": 0.65},
      {"measurement": "Ratio of ΔF (%) with d(CCCCGGGG)2/ d(GGGGCCCC)2", "setting": "100 mM NaCl", "value": 0.65},
      {"measurement": "Ratio of ΔF (%) with d(CCCCGGGG)2/ d(GGGGCCCC)2", "setting": "150 mM NaCl", "value": 0.60}
    ]}
  ]
}
